Some entries share one result that the patent states for a list of compounds. At least one structure is not confirmed: it was looked up by name or label, or the drawing left a doubt.
Test: tests for active substance adsorption on PBT
Assay type: physicochemical
Conditions: incubation period of 24 h

CCCC1COC(Cn2cncn2)(c2ccc(Cl)cc2Cl)O1 (centres unmarked) [propiconazole]
share of the starting concentration detectable in the culture medium: at least 80%

Cc1c(C)c2c(c(C)c1O)CCC(C)(COc1ccc(CC3SC(=O)NC3=O)cc1)O2 (centres unmarked) [troglitazone]
share of the starting concentration detectable in the culture medium: at least 80%

Reference: patent US20240093135A1, “BASE ELEMENT OF A MULTI-CHAMBER BIOCHIP, PRODUCTION OF THE MULTI-CHAMBER BIOCHIP, AND USE THEREOF FOR ESTABLISHING ORGAN AND DISEASE MODELS AND SUBSTANCE TESTS” (Dynamic42 GmbH, priority 2022, published 2024)
